Structures can show the parent of a compound that is named as a salt. This is one part of the list. Hit calls seldom repeat between salt and free forms of one compound.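 Kinases, fused to nanoluciferase, were expressed in K562 cells; luminescence was measured every 4 h from 2 to 18 h as percent of control (DMSO = 100%, positive control = 0%). A time point is decreased if signal falls significantly (2 sigma). Hits were called by the authors by a rule that is not shown; the count of time points alone does not decide it.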
Columns and labels:
Assay in all cases: number of time points (of 5) at which kinase-Nluc abundance scored as decreased, DMSO-normalised (count); higher = more persistent destabilization
Settings in all cases: K562; 2-18 h
PRKCA = PRKCA (UniProt P17252)
PTK2 = PTK2 (UniProt Q05397)
PTK2B = PTK2B (UniProt Q14289)
RAF1 = RAF1 (UniProt P04049)
[1] = target: RAF1_S257L (clone: RAF1_mut) (UniProt P04049)
RET = RET (UniProt P07949)
[2] = target: RET_M918T (clone: RET_mut) (UniProt P07949)
RIOK1 = RIOK1 (UniProt Q9BRS2)
RIPK1 = RIPK1 (UniProt Q13546)
RIPK2 = RIPK2 (UniProt O43353)
ROR2 = ROR2 (UniProt Q01974)
RPS6KA1 = RPS6KA1 (UniProt Q15418)
SPHK1 = SPHK1 (UniProt Q9NYA1)
SRC = SRC (UniProt P12931)
STK24 = STK24 (UniProt Q9Y6E0)
STK38 = STK38 (UniProt Q15208)
SYK = SYK (UniProt P43405)
TEC = TEC (UniProt P42680)
TYK2 = TYK2 (UniProt P29597)
ULK3 = ULK3 (UniProt Q6PHR2)

Amino acid sequences for entries named in this document (tags omitted). A change or cut given only in a name is not applied to a line headed by its entry.
UniProt P07949, whole entry, looked up: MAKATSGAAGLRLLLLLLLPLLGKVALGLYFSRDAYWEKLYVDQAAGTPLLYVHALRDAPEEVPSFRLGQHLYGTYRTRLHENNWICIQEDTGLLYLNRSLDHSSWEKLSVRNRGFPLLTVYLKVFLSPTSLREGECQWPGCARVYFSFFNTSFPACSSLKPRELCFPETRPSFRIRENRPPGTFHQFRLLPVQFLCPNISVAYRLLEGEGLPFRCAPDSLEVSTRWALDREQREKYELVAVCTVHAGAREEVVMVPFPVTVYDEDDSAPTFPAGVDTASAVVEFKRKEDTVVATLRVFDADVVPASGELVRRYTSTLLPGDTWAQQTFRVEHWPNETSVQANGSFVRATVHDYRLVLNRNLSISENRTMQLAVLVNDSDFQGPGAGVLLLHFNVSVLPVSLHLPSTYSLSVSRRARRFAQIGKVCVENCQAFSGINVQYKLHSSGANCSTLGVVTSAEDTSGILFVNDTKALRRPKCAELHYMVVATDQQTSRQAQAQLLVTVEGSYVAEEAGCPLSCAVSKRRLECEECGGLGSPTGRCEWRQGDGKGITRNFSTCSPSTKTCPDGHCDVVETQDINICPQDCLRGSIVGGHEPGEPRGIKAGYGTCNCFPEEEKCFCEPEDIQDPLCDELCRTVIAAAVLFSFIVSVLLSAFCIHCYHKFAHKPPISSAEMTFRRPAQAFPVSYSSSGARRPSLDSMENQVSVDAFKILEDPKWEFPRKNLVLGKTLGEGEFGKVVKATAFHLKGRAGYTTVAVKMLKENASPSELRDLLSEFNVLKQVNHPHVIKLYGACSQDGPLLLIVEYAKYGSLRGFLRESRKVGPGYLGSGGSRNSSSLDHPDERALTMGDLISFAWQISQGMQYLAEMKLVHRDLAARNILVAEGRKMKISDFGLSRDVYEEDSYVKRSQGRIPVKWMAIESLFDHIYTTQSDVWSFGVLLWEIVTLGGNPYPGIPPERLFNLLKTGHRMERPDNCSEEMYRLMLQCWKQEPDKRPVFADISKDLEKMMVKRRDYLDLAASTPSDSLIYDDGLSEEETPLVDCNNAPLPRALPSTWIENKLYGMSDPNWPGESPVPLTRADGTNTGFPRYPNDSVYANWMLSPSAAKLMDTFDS
UniProt P07949, whole entry M918T, looked up: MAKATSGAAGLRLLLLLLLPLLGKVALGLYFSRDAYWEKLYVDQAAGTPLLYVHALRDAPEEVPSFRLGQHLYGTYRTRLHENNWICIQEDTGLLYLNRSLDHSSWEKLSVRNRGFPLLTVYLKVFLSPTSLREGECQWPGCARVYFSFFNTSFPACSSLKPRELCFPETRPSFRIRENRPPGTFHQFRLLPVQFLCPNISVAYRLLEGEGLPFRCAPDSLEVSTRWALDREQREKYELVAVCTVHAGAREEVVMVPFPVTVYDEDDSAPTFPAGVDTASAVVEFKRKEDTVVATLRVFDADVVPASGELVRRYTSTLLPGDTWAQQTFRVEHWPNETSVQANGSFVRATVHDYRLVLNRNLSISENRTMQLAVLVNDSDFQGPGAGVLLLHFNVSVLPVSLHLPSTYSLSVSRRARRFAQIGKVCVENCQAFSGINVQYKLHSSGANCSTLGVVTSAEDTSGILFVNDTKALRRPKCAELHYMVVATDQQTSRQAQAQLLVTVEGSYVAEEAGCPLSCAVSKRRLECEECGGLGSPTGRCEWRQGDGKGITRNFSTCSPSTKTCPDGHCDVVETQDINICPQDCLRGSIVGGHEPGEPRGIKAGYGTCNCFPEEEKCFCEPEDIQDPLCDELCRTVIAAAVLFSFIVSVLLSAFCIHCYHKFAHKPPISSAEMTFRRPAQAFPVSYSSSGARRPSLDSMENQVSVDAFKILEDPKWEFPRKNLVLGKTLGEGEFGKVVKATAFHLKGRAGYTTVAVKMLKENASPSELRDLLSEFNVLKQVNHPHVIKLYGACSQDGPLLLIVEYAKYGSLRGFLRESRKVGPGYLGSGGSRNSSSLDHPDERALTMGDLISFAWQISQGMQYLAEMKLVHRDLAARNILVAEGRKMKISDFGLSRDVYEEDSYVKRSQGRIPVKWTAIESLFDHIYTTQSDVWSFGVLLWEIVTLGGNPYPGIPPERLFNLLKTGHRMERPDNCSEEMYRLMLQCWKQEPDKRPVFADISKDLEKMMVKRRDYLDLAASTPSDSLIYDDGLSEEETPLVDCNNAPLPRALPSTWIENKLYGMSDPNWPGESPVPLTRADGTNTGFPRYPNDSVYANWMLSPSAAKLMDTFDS
UniProt Q13546: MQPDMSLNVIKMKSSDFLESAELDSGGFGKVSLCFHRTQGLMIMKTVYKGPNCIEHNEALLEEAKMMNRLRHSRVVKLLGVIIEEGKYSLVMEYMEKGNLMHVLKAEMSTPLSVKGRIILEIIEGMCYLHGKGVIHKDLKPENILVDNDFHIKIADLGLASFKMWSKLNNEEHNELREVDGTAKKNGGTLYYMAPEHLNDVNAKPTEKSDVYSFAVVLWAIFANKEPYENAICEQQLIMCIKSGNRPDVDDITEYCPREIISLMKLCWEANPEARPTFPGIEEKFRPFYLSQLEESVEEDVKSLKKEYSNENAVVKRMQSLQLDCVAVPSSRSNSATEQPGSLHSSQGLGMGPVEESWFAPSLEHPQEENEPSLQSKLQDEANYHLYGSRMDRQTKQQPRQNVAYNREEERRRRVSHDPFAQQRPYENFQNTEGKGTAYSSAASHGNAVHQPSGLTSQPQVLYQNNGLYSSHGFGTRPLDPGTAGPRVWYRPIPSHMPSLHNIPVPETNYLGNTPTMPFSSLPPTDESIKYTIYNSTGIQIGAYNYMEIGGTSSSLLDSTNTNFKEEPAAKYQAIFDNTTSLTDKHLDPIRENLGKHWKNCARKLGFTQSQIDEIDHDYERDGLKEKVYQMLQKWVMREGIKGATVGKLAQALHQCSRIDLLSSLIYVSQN
UniProt Q01974, whole entry: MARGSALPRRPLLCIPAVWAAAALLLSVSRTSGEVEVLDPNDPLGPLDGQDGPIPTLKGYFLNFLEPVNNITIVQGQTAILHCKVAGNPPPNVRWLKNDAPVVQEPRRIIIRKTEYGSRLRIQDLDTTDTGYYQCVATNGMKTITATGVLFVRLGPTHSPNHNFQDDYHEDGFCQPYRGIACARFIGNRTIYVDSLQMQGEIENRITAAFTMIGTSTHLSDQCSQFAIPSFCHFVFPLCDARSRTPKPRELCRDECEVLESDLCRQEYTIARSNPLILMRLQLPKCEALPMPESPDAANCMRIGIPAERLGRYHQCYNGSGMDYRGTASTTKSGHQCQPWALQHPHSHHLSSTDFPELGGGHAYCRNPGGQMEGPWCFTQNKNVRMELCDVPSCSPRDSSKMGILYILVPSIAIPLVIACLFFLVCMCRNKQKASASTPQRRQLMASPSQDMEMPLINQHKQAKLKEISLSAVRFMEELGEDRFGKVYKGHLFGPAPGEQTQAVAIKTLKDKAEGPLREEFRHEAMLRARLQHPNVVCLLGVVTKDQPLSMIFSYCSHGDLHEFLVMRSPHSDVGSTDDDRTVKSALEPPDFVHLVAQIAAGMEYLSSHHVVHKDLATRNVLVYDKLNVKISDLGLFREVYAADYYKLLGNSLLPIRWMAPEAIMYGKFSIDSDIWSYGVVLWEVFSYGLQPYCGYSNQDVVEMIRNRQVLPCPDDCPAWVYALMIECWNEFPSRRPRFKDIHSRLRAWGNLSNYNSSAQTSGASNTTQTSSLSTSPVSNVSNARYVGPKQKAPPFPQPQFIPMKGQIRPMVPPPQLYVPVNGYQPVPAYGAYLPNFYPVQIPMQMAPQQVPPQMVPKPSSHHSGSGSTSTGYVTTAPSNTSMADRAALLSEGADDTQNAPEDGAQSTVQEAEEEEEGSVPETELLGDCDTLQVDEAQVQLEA
UniProt Q9Y6E0: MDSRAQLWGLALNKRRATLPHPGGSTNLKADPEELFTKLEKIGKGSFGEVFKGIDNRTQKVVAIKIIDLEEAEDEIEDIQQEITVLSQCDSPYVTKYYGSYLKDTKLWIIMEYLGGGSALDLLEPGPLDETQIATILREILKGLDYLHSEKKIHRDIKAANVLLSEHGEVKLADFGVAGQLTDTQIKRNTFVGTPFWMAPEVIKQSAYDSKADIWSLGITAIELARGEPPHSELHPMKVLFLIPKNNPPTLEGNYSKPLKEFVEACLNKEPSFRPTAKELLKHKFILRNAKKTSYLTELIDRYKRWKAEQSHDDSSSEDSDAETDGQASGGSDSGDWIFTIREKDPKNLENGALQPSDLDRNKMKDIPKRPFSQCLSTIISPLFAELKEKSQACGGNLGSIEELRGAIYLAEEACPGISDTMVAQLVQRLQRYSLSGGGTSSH
UniProt Q15208: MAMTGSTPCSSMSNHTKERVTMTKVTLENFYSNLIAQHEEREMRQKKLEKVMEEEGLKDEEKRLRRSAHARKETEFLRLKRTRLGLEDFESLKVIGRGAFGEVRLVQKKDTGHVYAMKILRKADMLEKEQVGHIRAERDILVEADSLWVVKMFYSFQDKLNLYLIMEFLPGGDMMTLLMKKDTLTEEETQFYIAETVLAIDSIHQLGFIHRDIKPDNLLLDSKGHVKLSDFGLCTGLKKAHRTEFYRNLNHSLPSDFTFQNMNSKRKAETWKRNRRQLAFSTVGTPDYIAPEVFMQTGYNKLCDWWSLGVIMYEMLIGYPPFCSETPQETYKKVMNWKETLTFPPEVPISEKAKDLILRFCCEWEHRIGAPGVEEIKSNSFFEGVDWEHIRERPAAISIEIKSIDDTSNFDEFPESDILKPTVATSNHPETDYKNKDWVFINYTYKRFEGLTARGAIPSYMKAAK
UniProt P29597: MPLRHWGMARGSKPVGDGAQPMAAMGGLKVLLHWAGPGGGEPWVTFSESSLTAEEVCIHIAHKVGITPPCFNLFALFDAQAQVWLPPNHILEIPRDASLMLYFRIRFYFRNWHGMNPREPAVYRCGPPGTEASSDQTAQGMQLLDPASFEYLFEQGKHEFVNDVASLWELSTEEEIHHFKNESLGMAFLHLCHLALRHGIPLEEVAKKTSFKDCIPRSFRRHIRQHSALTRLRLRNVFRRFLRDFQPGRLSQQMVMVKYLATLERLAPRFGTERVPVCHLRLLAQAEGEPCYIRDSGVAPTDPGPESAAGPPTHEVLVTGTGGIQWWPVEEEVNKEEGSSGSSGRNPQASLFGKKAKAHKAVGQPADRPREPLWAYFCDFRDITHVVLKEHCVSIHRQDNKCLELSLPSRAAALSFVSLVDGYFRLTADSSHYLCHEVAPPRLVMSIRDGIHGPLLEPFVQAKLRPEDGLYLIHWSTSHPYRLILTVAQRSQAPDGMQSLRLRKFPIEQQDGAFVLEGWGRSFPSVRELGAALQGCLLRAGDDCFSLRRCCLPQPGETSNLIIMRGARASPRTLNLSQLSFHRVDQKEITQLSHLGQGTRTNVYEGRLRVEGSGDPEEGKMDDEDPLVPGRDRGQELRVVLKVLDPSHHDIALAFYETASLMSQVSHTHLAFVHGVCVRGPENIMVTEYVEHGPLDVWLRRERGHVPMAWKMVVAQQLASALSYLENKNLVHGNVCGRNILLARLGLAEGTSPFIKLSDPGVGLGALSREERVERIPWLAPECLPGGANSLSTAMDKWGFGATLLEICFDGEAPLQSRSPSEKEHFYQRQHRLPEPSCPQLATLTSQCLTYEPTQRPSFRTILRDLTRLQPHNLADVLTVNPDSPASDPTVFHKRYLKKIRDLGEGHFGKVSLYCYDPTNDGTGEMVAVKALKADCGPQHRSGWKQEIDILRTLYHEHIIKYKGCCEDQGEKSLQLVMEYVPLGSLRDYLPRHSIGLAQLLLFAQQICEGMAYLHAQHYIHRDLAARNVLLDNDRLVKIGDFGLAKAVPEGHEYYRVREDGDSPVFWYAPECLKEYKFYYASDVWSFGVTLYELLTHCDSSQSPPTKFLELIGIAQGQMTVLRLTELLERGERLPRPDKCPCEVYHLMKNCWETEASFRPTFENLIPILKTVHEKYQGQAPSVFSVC
UniProt Q6PHR2: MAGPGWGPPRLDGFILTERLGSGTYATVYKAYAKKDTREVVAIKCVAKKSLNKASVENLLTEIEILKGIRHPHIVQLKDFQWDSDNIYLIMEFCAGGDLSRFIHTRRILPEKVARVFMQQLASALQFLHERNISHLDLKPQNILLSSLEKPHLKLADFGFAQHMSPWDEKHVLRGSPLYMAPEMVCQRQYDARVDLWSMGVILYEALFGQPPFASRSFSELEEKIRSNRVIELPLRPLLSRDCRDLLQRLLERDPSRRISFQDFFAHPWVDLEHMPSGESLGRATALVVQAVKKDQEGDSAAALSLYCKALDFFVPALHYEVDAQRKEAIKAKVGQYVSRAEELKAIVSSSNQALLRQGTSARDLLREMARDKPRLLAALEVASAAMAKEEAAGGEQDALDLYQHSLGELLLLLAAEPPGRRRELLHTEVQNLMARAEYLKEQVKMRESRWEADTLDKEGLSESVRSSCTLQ

SMILES | number of time points (PRKCA) | number of time points (PTK2) | number of time points (PTK2B) | number of time points (RAF1) | number of time points [1] | number of time points (RET) | number of time points [2] | number of time points (RIOK1) | number of time points (RIPK1) | number of time points (RIPK2) | number of time points (ROR2) | number of time points (RPS6KA1) | number of time points (SPHK1) | number of time points (SRC) | number of time points (STK24) | number of time points (STK38) | number of time points (SYK) | number of time points (TEC) | number of time points (TYK2) | number of time points (ULK3)
COc1ccc(CC(=O)Nc2nc3c(s2)CCc2ccccc2-3)cc1OC (10 µM) | 0 | 0 | 0 | 0 | 0 | 0 | 0 | 0 | 0 | 0 | 0 | 0 | 0 | 0 | 0 | 0 | 0 | 0 | 0 | 0
Cc1csc(-c2nnc(Nc3ccc(Oc4ncccc4-c4ccnc(N)n4)cc3)c3ccccc23)c1 (2.5 µM) | 0 | 0 | 0 | 0 | 0 | 0 | 0 | 0 | 0 | 0 | 0 | 0 | 0 | 0 | 0 | 0 | 0 | 0 | 0 | 0
COc1ccc(C(=O)Nc2sc3c(c2C(N)=O)CCCC3)cc1OC (10 µM) | 0 | 0 | 0 | 0 | 0 | 0 | 0 | 0 | 0 | 0 | 0 | 0 | 0 | 0 | 0 | 0 | 0 | 0 | 0 | 0
O=C(/C=C/c1ccc(O[C@@H]2O[C@H](CO)[C@@H](O)[C@H](O)[C@H]2O[C@@H]2OC[C@](O)(CO)[C@H]2O)cc1)c1ccc(O)cc1O [Isoliquiritin apioside] (10 µM) | 0 | 0 | 0 | 0 | 0 | 0 | 0 | 0 | 0 | 0 | 0 | 0 | 0 | 0 | 0 | 0 | 0 | 0 | 0 | 0
C/C(=C1/C(=O)Nc2ccc(NC(N)=O)cc21)c1ccc[nH]1 (10 µM) | 0 | 0 | 0 | 0 | 0 | 0 | 0 | 0 | 0 | 0 | 0 | 0 | 0 | 0 | 0 | 0 | 0 | 0 | 0 | 0
Cn1nccc1Nc1nccc(-c2cc3c(s2)C(C)(C)N(CCN2CCOCC2)C3=O)n1 (10 µM) | 0 | 0 | 0 | 0 | 0 | 0 | 0 | 0 | 0 | 0 | 0 | 0 | 0 | 0 | 0 | 0 | 0 | 0 | 0 | 0
N#Cc1c(-c2ccccc2)cc(-c2cc(Br)ccc2O)[nH]c1=O (10 µM) | 0 | 0 | 0 | 0 | 0 | 0 | 0 | 0 | 0 | 0 | 0 | 0 | 0 | 0 | 0 | 0 | 0 | 0 | 0 | 0
Nc1nccc(Oc2ccc(NC(=O)c3cn(COP(=O)(O)O)cc(-c4ccc(F)cc4)c3=O)cc2F)c1Cl (10 µM) | 0 | 0 | 0 | 0 | 2 | 0 | 0 | 2 | 0 | 3 | 0 | 0 | 0 | 0 | 0 | 0 | 0 | 0 | 0 | 1
O=C(Nc1cccnc1)c1cc(C(=O)c2c(F)cccc2Br)c[nH]1 (10 µM) | 0 | 0 | 0 | 0 | 0 | 0 | 0 | 0 | 0 | 0 | 0 | 0 | 0 | 0 | 0 | 0 | 0 | 0 | 0 | 0
COc1cccc(-n2c(=O)[nH]c3cc(Cl)n(-c4ccc(-c5cccc(OC)c5O)cc4)c3c2=O)c1 (2.5 µM) | 0 | 0 | 0 | 0 | 0 | 0 | 0 | 0 | 0 | 0 | 0 | 0 | 0 | 0 | 0 | 0 | 0 | 0 | 0 | 0
Cc1ccc(Oc2nc3cc(-c4ccc5c(ccn5C)c4)c(Cl)cc3[nH]2)cc1C(=O)O (10 µM) | 0 | 0 | 0 | 0 | 0 | 0 | 0 | 0 | 0 | 0 | 0 | 0 | 0 | 0 | 0 | 0 | 0 | 0 | 0 | 0
N[C@H](Cc1c[nH]c2ccccc12)C(=O)N/N=C/c1ccc2nccnc2c1 [Rhosin (hydrochloride)] (10 µM) | 0 | 0 | 0 | 0 | 0 | 0 | 0 | 0 | 0 | 0 | 0 | 0 | 0 | 0 | 0 | 0 | 0 | 0 | 0 | 0
Nc1ncnc2c1c(-c1ccc(Oc3ccccc3)cc1)nn2C1CCNCC1 [N-piperidine Ibrutinib (hydrochloride)] (10 µM) | 0 | 0 | 0 | 0 | 0 | 0 | 0 | 0 | 0 | 0 | 0 | 0 | 0 | 0 | 0 | 0 | 0 | 0 | 0 | 0
CCn1c(C(=O)N(C2CC2)C2CC2)cc2c3c(ncn3C)c(Nc3cc(C)n(C)n3)nc21 (10 µM) | 0 | 0 | 0 | 0 | 0 | 0 | 0 | 0 | 0 | 0 | 0 | 0 | 0 | 0 | 0 | 0 | 0 | 0 | 0 | 0
Cc1cc(Nc2cc(Cl)nc(Oc3ccc([N+](=O)[O-])cc3)n2)n[nH]1 [Autophinib] (2.5 µM) | 0 | 0 | 0 | 0 | 0 | 0 | 0 | 0 | 0 | 0 | 0 | 0 | 0 | 0 | 0 | 0 | 0 | 0 | 0 | 0
O=C(Nc1ccc(F)cc1F)[C@H](NC(=S)Nc1cc(C(F)(F)F)cc(C(F)(F)F)c1)c1ccccc1 (2.5 µM) | 0 | 0 | 0 | 0 | 0 | 0 | 0 | 0 | 0 | 0 | 0 | 0 | 0 | 0 | 0 | 0 | 0 | 0 | 0 | 0

Full records, looked up by structure. Values in the order: number of time points (PRKCA)	number of time points (PTK2)	number of time points (PTK2B)	number of time points (RAF1)	number of time points [1]	number of time points (RET)	number of time points [2]	number of time points (RIOK1)	number of time points (RIPK1)	number of time points (RIPK2)	number of time points (ROR2)	number of time points (RPS6KA1)	number of time points (SPHK1)	number of time points (SRC)	number of time points (STK24)	number of time points (STK38)	number of time points (SYK)	number of time points (TEC)	number of time points (TYK2)	number of time points (ULK3)
`Cc1csc(-c2nnc(Nc3ccc(Oc4ncccc4-c4ccnc(N)n4)cc3)c3ccccc23)c1` (2.5 µM) reads 0	0	0	0	0	0	0	0	0	0	0	0	0	0	0	0	0	0	0	0
`Nc1ncnc2c1c(-c1ccc(Oc3ccccc3)cc1)nn2C1CCNCC1` [N-piperidine Ibrutinib (hydrochloride)] (10 µM) reads 0	0	0	0	0	0	0	0	0	0	0	0	0	0	0	0	0	0	0	0

Reference: the supplement of paper PMC12823440, “Inhibitors supercharge kinase turnover through native proteolytic circuits” (Nature, 2025)
